Our source for the binding values is paper PMC12126231.

No constants are given. Whether binding was seen depends on the method and setting. In cells and extracts the contact can be indirect. Binding can be weak; no strength is given.

The target of this experiment is AMP-activated protein kinase (AMPK) (mouse (endogenous in liver and primary hepatocytes)). The experiment is described as follows: co-IP; endogenous IP: WT and PTGLKO liver and hepatocyte lysates incubated with AMPKα primary antibody overnight at 4°C, then magnetic protein A/G beads 2 hours at room temperature; washed 3 times; blots.

B1: LKB1 (enzyme, UniProt Q9WTK7 1-436)
chain: MDVADPEPLGLFSEGELMSVGMDTFIHRIDSTEVIYQPRRKRAKLIGKYLMGDLLGEGSYGKVKEVLDSETLCRRAVKILKKKKLRRIPNGEANVKKEIQLLRRLRHRNVIQLVDVLYNEEKQKMYMVMEYCVCGMQEMLDSVPEKRFPVCQAHGYFRQLIDGLEYLHSQGIVHKDIKPGNLLLTTNGTLKISDLGVAEALHPFAVDDTCRTSQGSPAFQPPEIANGLDTFSGFKVDIWSAGVTLYNITTGLYPFEGDNIYKLFENIGRGDFTIPCDCGPPLSDLLRGMLEYEPAKRFSIRQIRQHSWFRKKHPLAEALVPIPPSPDTKDRWRSMTVVPYLEDLHGRAEEEEEEDLFDIEDGIIYTQDFTVPGQVLEEEVGQNGQSHSLPKAVCVNGTEPQLSSKVKPEGRPGTANPARKVCSSNKIRRLSACKQQ
In the case of B1, the binding result was “binds”.
